The source of these data is article doi:10.1101/572156.

The chains behind the UniProt entries cited, without tags or fusion partners.
UniProt Q92841: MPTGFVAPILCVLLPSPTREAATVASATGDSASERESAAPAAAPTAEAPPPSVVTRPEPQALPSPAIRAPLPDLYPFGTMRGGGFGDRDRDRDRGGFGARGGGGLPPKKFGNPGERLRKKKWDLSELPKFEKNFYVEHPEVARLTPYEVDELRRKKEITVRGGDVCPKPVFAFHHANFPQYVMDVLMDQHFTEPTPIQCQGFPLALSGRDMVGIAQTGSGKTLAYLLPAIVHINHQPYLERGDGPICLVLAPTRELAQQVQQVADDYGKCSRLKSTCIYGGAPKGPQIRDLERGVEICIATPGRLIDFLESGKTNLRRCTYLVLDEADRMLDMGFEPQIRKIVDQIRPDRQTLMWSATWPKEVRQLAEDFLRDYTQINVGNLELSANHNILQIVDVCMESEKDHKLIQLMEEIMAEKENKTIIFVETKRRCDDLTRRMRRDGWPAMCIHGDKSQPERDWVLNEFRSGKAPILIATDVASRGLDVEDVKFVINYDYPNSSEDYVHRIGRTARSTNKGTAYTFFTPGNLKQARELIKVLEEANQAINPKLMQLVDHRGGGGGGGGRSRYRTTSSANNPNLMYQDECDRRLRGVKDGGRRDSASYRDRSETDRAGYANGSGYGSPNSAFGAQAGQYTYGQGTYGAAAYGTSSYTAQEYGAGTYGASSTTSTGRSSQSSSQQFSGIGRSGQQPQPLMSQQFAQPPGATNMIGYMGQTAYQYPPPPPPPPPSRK
UniProt Q15717: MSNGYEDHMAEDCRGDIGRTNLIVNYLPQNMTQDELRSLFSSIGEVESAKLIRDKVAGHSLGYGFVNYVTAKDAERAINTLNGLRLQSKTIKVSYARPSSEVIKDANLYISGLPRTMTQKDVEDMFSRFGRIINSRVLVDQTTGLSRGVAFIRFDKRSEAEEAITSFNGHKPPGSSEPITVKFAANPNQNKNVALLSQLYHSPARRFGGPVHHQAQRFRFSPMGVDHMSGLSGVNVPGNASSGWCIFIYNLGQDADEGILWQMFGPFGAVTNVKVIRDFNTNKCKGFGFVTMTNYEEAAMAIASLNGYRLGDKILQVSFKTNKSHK
UniProt P0DMV8: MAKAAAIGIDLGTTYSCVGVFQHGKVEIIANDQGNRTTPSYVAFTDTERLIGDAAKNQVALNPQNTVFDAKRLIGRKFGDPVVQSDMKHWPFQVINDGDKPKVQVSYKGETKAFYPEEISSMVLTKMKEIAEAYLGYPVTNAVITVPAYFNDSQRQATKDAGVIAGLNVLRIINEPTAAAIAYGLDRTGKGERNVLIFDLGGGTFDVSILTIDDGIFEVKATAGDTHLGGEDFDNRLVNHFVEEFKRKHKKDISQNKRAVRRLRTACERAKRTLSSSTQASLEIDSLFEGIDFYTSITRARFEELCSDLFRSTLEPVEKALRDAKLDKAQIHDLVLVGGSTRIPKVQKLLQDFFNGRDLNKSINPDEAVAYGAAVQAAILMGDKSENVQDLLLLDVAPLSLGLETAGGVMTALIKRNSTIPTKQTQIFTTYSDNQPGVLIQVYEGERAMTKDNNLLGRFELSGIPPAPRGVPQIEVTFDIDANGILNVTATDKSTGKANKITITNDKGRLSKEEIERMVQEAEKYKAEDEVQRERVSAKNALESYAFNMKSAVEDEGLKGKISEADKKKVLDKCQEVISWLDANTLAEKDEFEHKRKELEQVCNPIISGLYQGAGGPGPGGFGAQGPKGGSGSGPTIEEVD
UniProt P17066: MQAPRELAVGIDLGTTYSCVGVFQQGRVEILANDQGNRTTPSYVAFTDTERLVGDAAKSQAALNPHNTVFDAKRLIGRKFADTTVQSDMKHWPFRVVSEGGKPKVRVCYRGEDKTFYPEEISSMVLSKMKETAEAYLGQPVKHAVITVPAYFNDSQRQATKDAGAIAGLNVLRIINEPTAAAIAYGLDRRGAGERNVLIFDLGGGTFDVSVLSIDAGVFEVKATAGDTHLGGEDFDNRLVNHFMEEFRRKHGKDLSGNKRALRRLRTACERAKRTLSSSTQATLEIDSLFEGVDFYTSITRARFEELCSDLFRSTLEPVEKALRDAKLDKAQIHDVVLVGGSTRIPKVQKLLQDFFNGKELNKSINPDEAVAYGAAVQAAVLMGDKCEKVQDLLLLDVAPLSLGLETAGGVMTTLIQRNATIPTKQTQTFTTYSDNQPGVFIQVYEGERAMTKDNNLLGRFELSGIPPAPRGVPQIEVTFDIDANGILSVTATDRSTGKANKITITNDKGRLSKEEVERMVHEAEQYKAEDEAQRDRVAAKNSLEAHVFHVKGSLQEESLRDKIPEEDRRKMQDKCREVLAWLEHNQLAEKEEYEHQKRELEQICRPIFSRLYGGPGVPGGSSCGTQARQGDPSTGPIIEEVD
UniProt P11940: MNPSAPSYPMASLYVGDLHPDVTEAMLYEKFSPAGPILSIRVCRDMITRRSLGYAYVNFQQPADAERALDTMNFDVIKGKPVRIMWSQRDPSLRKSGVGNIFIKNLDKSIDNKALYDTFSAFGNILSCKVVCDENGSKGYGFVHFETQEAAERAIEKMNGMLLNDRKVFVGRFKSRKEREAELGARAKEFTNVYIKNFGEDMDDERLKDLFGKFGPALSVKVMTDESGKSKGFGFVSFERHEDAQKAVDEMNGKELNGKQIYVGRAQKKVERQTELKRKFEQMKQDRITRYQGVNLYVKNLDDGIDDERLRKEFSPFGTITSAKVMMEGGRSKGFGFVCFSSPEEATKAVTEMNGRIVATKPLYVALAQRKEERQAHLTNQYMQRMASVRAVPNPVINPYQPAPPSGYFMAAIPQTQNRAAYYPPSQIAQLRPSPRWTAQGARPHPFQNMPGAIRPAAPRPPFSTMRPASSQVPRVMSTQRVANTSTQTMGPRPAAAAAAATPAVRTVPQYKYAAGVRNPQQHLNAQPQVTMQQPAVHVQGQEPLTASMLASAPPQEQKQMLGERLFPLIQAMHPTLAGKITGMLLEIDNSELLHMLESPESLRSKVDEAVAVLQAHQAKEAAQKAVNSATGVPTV
UniProt O60506: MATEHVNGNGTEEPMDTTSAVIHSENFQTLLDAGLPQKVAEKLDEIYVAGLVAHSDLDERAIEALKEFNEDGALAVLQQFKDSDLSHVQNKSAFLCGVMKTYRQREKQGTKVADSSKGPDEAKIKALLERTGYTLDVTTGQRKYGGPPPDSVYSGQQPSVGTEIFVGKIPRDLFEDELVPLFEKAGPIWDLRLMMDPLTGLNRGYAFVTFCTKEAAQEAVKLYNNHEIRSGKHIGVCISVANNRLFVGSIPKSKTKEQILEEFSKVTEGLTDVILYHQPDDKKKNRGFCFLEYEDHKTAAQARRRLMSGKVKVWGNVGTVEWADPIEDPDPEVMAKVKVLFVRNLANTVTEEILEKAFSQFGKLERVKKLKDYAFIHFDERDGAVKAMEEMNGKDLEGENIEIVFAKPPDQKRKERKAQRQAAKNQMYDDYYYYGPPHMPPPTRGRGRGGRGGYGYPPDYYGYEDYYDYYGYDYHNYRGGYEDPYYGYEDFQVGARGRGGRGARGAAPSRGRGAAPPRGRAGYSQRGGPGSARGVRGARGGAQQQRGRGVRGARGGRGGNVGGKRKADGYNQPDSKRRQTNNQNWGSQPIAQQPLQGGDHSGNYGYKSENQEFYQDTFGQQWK
UniProt Q9UPQ9: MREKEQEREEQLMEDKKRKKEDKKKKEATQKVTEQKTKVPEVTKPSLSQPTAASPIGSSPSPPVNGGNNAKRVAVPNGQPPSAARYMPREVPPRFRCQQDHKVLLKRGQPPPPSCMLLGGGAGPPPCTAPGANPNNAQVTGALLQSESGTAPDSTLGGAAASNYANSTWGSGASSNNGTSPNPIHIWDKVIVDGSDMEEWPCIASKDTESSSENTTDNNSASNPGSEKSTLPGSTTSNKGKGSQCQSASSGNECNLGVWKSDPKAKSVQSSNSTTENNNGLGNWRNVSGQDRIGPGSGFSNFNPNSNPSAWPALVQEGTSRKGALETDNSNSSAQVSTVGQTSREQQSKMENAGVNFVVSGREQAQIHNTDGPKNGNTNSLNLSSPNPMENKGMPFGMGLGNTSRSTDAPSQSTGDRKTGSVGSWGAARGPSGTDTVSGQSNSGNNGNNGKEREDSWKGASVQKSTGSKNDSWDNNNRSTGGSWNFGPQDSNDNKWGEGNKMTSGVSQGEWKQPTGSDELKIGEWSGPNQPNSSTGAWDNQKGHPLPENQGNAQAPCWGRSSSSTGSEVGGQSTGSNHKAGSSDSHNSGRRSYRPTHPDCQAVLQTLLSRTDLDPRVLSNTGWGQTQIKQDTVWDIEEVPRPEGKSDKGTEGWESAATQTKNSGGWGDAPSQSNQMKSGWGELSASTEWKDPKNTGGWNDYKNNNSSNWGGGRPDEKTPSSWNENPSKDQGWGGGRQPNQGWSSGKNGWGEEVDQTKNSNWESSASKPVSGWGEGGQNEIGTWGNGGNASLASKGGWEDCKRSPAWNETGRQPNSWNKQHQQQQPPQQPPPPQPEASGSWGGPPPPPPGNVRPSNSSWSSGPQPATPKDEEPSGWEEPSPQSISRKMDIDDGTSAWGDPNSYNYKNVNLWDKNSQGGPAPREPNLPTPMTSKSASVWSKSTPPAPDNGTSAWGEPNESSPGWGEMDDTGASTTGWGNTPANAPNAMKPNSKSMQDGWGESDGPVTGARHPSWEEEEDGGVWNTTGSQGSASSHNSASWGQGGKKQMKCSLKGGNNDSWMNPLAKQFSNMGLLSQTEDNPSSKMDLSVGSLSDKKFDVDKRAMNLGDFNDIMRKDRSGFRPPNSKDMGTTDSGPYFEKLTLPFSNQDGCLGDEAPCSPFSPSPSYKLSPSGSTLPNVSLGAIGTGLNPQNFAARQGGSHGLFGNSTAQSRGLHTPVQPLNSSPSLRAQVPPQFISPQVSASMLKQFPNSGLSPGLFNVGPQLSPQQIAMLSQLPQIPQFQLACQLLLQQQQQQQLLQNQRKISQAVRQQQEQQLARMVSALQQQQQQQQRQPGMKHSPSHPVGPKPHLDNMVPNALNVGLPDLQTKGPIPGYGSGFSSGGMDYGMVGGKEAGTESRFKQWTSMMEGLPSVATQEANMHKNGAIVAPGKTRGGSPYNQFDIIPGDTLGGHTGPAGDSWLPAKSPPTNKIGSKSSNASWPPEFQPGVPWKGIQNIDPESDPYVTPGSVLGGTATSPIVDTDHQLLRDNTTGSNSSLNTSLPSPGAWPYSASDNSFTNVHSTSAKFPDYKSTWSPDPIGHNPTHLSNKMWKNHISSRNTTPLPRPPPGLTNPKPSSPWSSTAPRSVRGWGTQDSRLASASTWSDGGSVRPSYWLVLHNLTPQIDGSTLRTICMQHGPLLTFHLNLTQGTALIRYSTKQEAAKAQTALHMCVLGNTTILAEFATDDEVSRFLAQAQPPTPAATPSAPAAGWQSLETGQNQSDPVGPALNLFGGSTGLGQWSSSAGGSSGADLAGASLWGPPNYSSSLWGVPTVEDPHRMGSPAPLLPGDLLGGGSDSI

Common to all, as to assay: affinity purification with mass spectrometry
Assay [1] addresses T1, FLAG-tagged DND1 1-235 dsRBD truncation mutant (human) (UniProt Q8IYX4).
T1 sequence: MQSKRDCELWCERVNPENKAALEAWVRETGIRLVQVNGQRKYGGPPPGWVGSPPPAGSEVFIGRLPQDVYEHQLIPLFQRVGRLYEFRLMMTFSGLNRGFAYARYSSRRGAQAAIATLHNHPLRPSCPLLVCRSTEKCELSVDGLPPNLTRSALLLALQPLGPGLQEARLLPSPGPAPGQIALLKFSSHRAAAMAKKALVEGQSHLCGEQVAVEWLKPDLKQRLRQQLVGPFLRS

Assay [2] has as its target T2, FLAG-tagged DND1 wild-type (full-length human Dead End, 1-353) (human) (UniProt Q8IYX4).
T2 sequence: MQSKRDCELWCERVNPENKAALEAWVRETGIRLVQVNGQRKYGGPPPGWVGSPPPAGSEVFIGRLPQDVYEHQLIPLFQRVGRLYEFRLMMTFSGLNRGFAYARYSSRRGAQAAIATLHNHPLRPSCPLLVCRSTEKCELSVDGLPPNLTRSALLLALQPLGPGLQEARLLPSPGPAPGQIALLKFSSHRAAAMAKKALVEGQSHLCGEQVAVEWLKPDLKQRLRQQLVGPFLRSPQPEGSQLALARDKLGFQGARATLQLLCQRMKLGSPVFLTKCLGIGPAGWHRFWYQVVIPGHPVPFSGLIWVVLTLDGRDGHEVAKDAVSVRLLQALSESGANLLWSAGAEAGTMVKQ

Assay [3] deals with T3, FLAG-tagged DND1 R98A (full-length, RRM1 RNP1 RNA binding mutant) (human) (UniProt Q8IYX4).
T3 sequence: T2 sequence with R98A

Assay [4] addresses T3, FLAG-tagged DND1 R98A (full-length, RRM1 RNP1 RNA binding mutant) (human). This is another data set of the same source.
Assay [5] has as its target T2, FLAG-tagged DND1 wild-type (full-length human Dead End, 1-353) (human). The source holds these as a separate data set.
Assay [6] concerns the target T1, FLAG-tagged DND1 1-235 dsRBD truncation mutant (human). The source holds these as a separate data set.

Where a chain is given by its changes, count along the chain named. Like-named read-outs stand apart in the source and are kept apart here. Results are given in words; binding and its absence hold for the method and conditions named. Binding seen in cells or lysates may run through a third protein. A yes stands for co-enrichment or nearness to the bait. Other partners may have been found. Tags and fused reporters may be left off the sequences shown.

For the molecule DDX17 (from UniProt Q92841 1-729), the binding result in assay [1] and in assay [2] was “binds” in each case.

For the molecule ELAVL1/HuR (from UniProt Q15717 1-326), the binding result in assay [3] and in assay [2] was “binds” each time.

Consider HSPA1A (from UniProt P0DMV8 1-641), for which the binding result in assay [1] and in assay [2] was “binds” throughout.

For the molecule HSPA6 (from UniProt P17066 1-643), the binding result in assay [1] and in assay [2] was “binds” throughout.

In the case of PABPC1 (from UniProt P11940 1-636), the binding entry in assay [3] and in assay [2] was “binds” throughout.

For SYNCRIP (from UniProt O60506 1-623), the binding entry in assay [3] and in assay [2] was “binds” in each case.

As to TNRC6B (from UniProt Q9UPQ9 1-1833), the binding entry in assay [1] and in assay [2] was “binds” in each case.

B1: HNRNPL (protein, UniProt P14866 1-589)
chain: MSRRLLPRAEKRRRRLEQRQQPDEQRRRSGAMVKMAAAGGGGGGGRYYGGGSEGGRAPKRLKTDNAGDQHGGGGGGGGGAGAAGGGGGGENYDDPHKTPASPVVHIRGLIDGVVEADLVEALQEFGPISYVVVMPKKRQALVEFEDVLGACNAVNYAADNQIYIAGHPAFVNYSTSQKISRPGDSDDSRSVNSVLLFTILNPIYSITTDVLYTICNPCGPVQRIVIFRKNGVQAMVEFDSVQSAQRAKASLNGADIYSGCCTLKIEYAKPTRLNVFKNDQDTWDYTNPNLSGQGDPGSNPNKRQRQPPLLGDHPAEYGGPHGGYHSHYHDEGYGPPPPHYEGRRMGPPVGGHRRGPSRYGPQYGHPPPPPPPPEYGPHADSPVLMVYGLDQSKMNCDRVFNVFCLYGNVEKVKFMKSKPGAAMVEMADGYAVDRAITHLNNNFMFGQKLNVCVSKQPAIMPGQSYGLEDGSCSYKDFSESRNNRFSTPEQAAKNRIQHPSNVLHFFNAPLEVTEENFFEICDELGVKRPSSVKVFSGKSERSSSGLLEWESKSDALETLGFLNHYQMKNPNGPYPYTLKLCFSTAQHAS
In the case of B1, the binding entry in assay [4] and in assay [5] was “binds” in each case.

B2: DHX30 (protein, UniProt Q7L2E3 1-1194)
chain: MFSLDSFRKDRAQHRQRQCKLPPPRLPPMCVNPTPGGTISRASRDLLKEFPQPKNLLNSVIGRALGISHAKDKLVYVHTNGPKKKKVTLHIKWPKSVEVEGYGSKKIDAERQAAAAACQLFKGWGLLGPRNELFDAAKYRVLADRFGSPADSWWRPEPTMPPTSWRQLNPESIRPGGPGGLSRSLGREEEEDEEEELEEGTIDVTDFLSMTQQDSHAPLRDSRGSSFEMTDDDSAIRALTQFPLPKNLLAKVIQIATSSSTAKNLMQFHTVGTKTKLSTLTLLWPCPMTFVAKGRRKAEAENKAAALACKKLKSLGLVDRNNEPLTHAMYNLASLRELGETQRRPCTIQVPEPILRKIETFLNHYPVESSWIAPELRLQSDDILPLGKDSGPLSDPITGKPYVPLLEAEEVRLSQSLLELWRRRGPVWQEAPQLPVDPHRDTILNAIEQHPVVVISGDTGCGKTTRIPQLLLERYVTEGRGARCNVIITQPRRISAVSVAQRVSHELGPSLRRNVGFQVRLESKPPSRGGALLFCTVGILLRKLQSNPSLEGVSHVIVDEVHERDVNTDFLLILLKGLQRLNPALRLVLMSATGDNERFSRYFGGCPVIKVPGFMYPVKEHYLEDILAKLGKHQYLHRHRHHESEDECALDLDLVTDLVLHIDARGEPGGILCFLPGWQEIKGVQQRLQEALGMHESKYLILPVHSNIPMMDQKAIFQQPPVGVRKIVLATNIAETSITINDIVHVVDSGLHKEERYDLKTKVSCLETVWVSRANVIQRRGRAGRCQSGFAYHLFPRSRLEKMVPFQVPEILRTPLENLVLQAKIHMPEKTAVEFLSKAVDSPNIKAVDEAVILLQEIGVLDQREYLTTLGQRLAHISTDPRLAKAIVLAAIFRCLHPLLVVVSCLTRDPFSSSLQNRAEVDKVKALLSHDSGSDHLAFVRAVAGWEEVLRWQDRSSRENYLEENLLYAPSLRFIHGLIKQFSENIYEAFLVGKPSDCTLASAQCNEYSEEEELVKGVLMAGLYPNLIQVRQGKVTRQGKFKPNSVTYRTKSGNILLHKSTINREATRLRSRWLTYFMAVKSNGSVFVRDSSQVHPLAVLLLTDGDVHIRDDGRRATISLSDSDLLRLEGDSRTVRLLKELRRALGRMVERSLRSELAALPPSVQEEHGQLLALLAELLRGPCGSFDVRKTADD
B2: the binding result in assay [4] and in assay [5] was “binds” in each case.

B3: MEX3A (protein, UniProt A1L020 1-520)
chain: MPSLVVSGIMERNGGFGELGCFGGSAKDRGLLEDERALQLALDQLCLLGLGEPPAPTAGEDGGGGGGGAPAQPAAPPQPAPPPPPAAPPAAPTAAPAAQTPQPPTAPKGASDAKLCALYKEAELRLKGSSNTTECVPVPTSEHVAEIVGRQGCKIKALRAKTNTYIKTPVRGEEPVFMVTGRREDVATARREIISAAEHFSMIRASRNKSGAAFGVAPALPGQVTIRVRVPYRVVGLVVGPKGATIKRIQQQTNTYIITPSRDRDPVFEITGAPGNVERAREEIETHIAVRTGKILEYNNENDFLAGSPDAAIDSRYSDAWRVHQPGCKPLSTFRQNSLGCIGECGVDSGFEAPRLGEQGGDFGYGGYLFPGYGVGKQDVYYGVAETSPPLWAGQENATPTSVLFSSASSSSSSSAKARAGPPGAHRSPATSAGPELAGLPRRPPGEPLQGFSKLGGGGLRSPGGGRDCMVCFESEVTAALVPCGHNLFCMECAVRICERTDPECPVCHITATQAIRIFS
Turning to B3, the binding entry in assay [6] and in assay [5] was “binds” each time.

B4: MOV10 (protein, UniProt Q9HCE1 1-1003)
chain: MPSKFSCRQLREAGQCFESFLVVRGLDMETDRERLRTIYNRDFKISFGTPAPGFSSMLYGMKIANLAYVTKTRVRFFRLDRWADVRFPEKRRMKLGSDISKHHKSLLAKIFYDRAEYLHGKHGVDVEVQGPHEARDGQLLIRLDLNRKEVLTLRLRNGGTQSVTLTHLFPLCRTPQFAFYNEDQELPCPLGPGECYELHVHCKTSFVGYFPATVLWELLGPGESGSEGAGTFYIARFLAAVAHSPLAAQLKPMTPFKRTRITGNPVVTNRIEEGERPDRAKGYDLELSMALGTYYPPPRLRQLLPMLLQGTSIFTAPKEIAEIKAQLETALKWRNYEVKLRLLLHLEELQMEHDIRHYDLESVPMTWDPVDQNPRLLTLEVPGVTESRPSVLRGDHLFALLSSETHQEDPITYKGFVHKVELDRVKLSFSMSLLSRFVDGLTFKVNFTFNRQPLRVQHRALELTGRWLLWPMLFPVAPRDVPLLPSDVKLKLYDRSLESNPEQLQAMRHIVTGTTRPAPYIIFGPPGTGKTVTLVEAIKQVVKHLPKAHILACAPSNSGADLLCQRLRVHLPSSIYRLLAPSRDIRMVPEDIKPCCNWDAKKGEYVFPAKKKLQEYRVLITTLITAGRLVSAQFPIDHFTHIFIDEAGHCMEPESLVAIAGLMEVKETGDPGGQLVLAGDPRQLGPVLRSPLTQKHGLGYSLLERLLTYNSLYKKGPDGYDPQFITKLLRNYRSHPTILDIPNQLYYEGELQACADVVDRERFCRWAGLPRQGFPIIFHGVMGKDEREGNSPSFFNPEEAATVTSYLKLLLAPSSKKGKARLSPRSVGVISPYRKQVEKIRYCITKLDRELRGLDDIKDLKVGSVEEFQGQERSVILISTVRSSQSFVQLDLDFNLGFLKNPKRFNVAVTRAKALLIIVGNPLLLGHDPDWKVFLEFCKENGGYTGCPFPAKLDLQQGQNLLQGLSKLSPSTSGPHSHDYLPQEREGEGGLSLQVEPEWRNEL
Turning to B4, the binding result in assay [4] and in assay [5] was “binds” each time.
